PubChem BioAssay AID1224828 | NIAID – 2016

- Purpose: 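Regulators linking TLR4 signalling to p65 nuclear translocation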 (primary screen)
- Cell system: mouse RAW264.7 G9 macrophage reporter cells (GFP-p65, Tnf promoter-mCherry)
- Reagent: siRNA pool against mouse genes, 100 nM
- Duration: 2 days siRNA transfection, then 40 min LPS before fixation
- Conditions: LPS (Salmonella minnesota R595) at 10 ng/ml
- Detection: 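Microscopy ratio of nuclear to perinuclear-ring GFP-p65 signal, scaled to the plate median; gene score is the average of two replicate robust z-scores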
- Direction: p65 translocation robust z-score: higher = more nuclear NF-kappaB p65 after LPS than the plate median; nuclear/cytoplasmic p65 ratio: higher = more nuclear NF-kappaB p65
- Active means: 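Active if robust z is above 3.3 (negative regulators) or below -1.56, the Tlr4 control median (positive regulators); activity score 50 or more; control wells not called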
- Meaning of the calls: active = hit (p65 shift raised or lowered); inactive = no clear change
Shown is a random part of about 17,000 reagents tested. Of all reagents, 762 (4.5%) got an active call. 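Active calls include both raised and lowered p65 entry, mostly lowered; wells with fewer than 50 cells lack a z-score.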 Raw values vary from plate to plate and are shown uncorrected. A reagent listed more than once was tested more than once; the source does not tell the runs apart.

no.	gene symbol	PubChem SID	p65 translocation robust z-score	nuclear/cytoplasmic p65 ratio, rep 1	nuclear/cytoplasmic p65 ratio, rep 2	low cell count flag	Outcome
1	Tmem43 (transmembrane protein 43)	SID315474856		1.38	1.39	fewer than 50 cells per well; well left out of scoring	inactive
2	Ifi35 (interferon-induced protein 35)	SID315473978	-0.05	1.41	1.38	enough cells to score	inactive
3	Sfxn5 (sideroflexin 5)	SID315476081		1.11	1.33	fewer than 50 cells per well; well left out of scoring	inactive
4	Foxp4 (forkhead box P4)	SID315474857	0.13	1.65	1.44	enough cells to score	inactive
5	Tctn2 (tectonic family member 2)	SID315473345	0.61	1.39	1.29	enough cells to score	inactive
6	Sdhc	SID315472181	0.03	1.38	1.73	enough cells to score	inactive
7	Ddx41 (DEAD box helicase 41)	SID315474649	0.26	1.63	1.57	enough cells to score	inactive
8	Lce1c (late cornified envelope 1C)	SID315474771	1.23	1.57	1.76	enough cells to score	inactive
9	Lce1c (late cornified envelope 1C)	SID315474771	-0.08	1.44	1.53	enough cells to score	inactive
10	Cldn23 (claudin 23)	SID315474373	-0.24	1.45	1.74	enough cells to score	inactive
11	Dph7 (diphthamine biosynethesis 7)	SID315472913		1.29	1.11	fewer than 50 cells per well; well left out of scoring	inactive
12	Or4f58 (olfactory receptor family 4 subfamily F member 58)	SID315479965	-1.52	1.39	1.22	enough cells to score	inactive
13	Ndp (Norrie disease (pseudoglioma) (human))	SID315468118	0.1	1.51	1.31	enough cells to score	inactive
14	Dock6 (dedicator of cytokinesis 6)	SID315481190	0.32	1.47	1.57	enough cells to score	inactive
15	Pramel3c (PRAME like 3C)	SID315481642		1.11	1.22	fewer than 50 cells per well; well left out of scoring	inactive
16	Id4 (inhibitor of DNA binding 4)	SID315467368	0.38	1.54	1.38	enough cells to score	inactive
17	Hdlbp (high density lipoprotein (HDL) binding protein)	SID315476919	0.1	1.57	1.28	enough cells to score	inactive
18	Grp (gastrin releasing peptide)	SID315478429	0.36	1.42	1.48	enough cells to score	inactive
19	Or7e173 (olfactory receptor family 7 subfamily E member 173)	SID315480221		1.4	1.17	fewer than 50 cells per well; well left out of scoring	inactive
20	Psg17 (pregnancy specific beta-1-glycoprotein 17)	SID315470411	1.35	1.55	1.25	enough cells to score	inactive
21	Cfap95 (cilia and flagella associated protein 95)	SID315473057		1.34	1.55	fewer than 50 cells per well; well left out of scoring	inactive
22	Tcn2 (transcobalamin 2)	SID315469630	0.54	1.58	1.61	enough cells to score	inactive
23	Myadm (myeloid-associated differentiation marker)	SID315470885	-0.66	1.67	1.5	enough cells to score	inactive
24	Nek6 (NIMA (never in mitosis gene a)-related expressed kinase 6)	SID315471996	0.68	1.82	1.44	enough cells to score	inactive
25	Gprin1 (G protein-regulated inducer of neurite outgrowth 1)	SID315470478		1.02	1.38	fewer than 50 cells per well; well left out of scoring	inactive
26	Tob1 (transducer of ErbB-2.1)	SID315469831	-0.42	1.5	1.42	enough cells to score	inactive
27	Cacna2d3 (calcium channel, voltage-dependent, alpha2/delta subunit 3)	SID315465714	-1.01	1.42	1.64	enough cells to score	inactive
28	Fzd3 (frizzled class receptor 3)	SID315466774	-1.01	1.36	1.44	enough cells to score	inactive
29	Slc39a3	SID315476571	-0.26	1.04	1.23	enough cells to score	inactive
30	Elob (elongin B)	SID315473157	-0.31	1.45	1.5	enough cells to score	inactive
31	Cxxc1 (CXXC finger protein 1)	SID315474938		1.82	1.66	fewer than 50 cells per well; well left out of scoring	inactive
32	Mlx (MAX-like protein X)	SID315469627	0.34	1.53	1.6	enough cells to score	inactive
33	Wdr47 (WD repeat domain 47)	SID315476182	-1.09	1.22	1.25	enough cells to score	inactive
34	Bcas2 (BCAS2 pre-mRNA processing factor)	SID315473441	0.59	1.67	1.73	enough cells to score	inactive
35	Rnf135 (ring finger protein 135)	SID315474393		1.8	1.8	fewer than 50 cells per well; well left out of scoring	inactive
36	Wdr26 (WD repeat domain 26)	SID315478522	1.68	1.59	1.44	enough cells to score	inactive
37	Jph3 (junctophilin 3)	SID315471765	2.44	1.71	1.78	enough cells to score	inactive
38	Wdr5b (WD repeat domain 5B)	SID315473826	1.42	1.87	1.63	enough cells to score	inactive
39	Cysltr1 (cysteinyl leukotriene receptor 1)	SID315471921	0.9	1.68	1.67	enough cells to score	inactive
40	Uck1 (uridine-cytidine kinase 1)	SID315469934	-2.32	1.36	1.06	enough cells to score	active
41	Tspan12 (tetraspanin 12)	SID315480890	2.01	1.62	1.3	enough cells to score	inactive
42	Vamp8 (vesicle-associated membrane protein 8)	SID315469980	-0.24	1.5	1.29	enough cells to score	inactive
43	Mical1	SID315477372	1.11	1.85	1.72	enough cells to score	inactive
44	AF085738 (retired record)	SID315477380	-1.78	1.38	1.37	enough cells to score	active
45	Slc7a15	SID315481461		1.14	1.45	fewer than 50 cells per well; well left out of scoring	inactive
46	Apoa2 (apolipoprotein A-II)	SID315465464	-0.02	1.63	1.6	enough cells to score	inactive
47	Or4k44 (olfactory receptor family 4 subfamily K member 44)	SID315480514	2.46	1.53	2.13	enough cells to score	inactive
48	Plekhg6 (pleckstrin homology and RhoGEF domain containing G6)	SID315477812	0.11	1.7	1.56	enough cells to score	inactive
49	Exosc6 (exosome component 6)	SID315474573		1.4	1.4	fewer than 50 cells per well; well left out of scoring	inactive

Entries listed so far whose gene name begins with N or n:
gene symbol	PubChem SID	p65 translocation robust z-score	nuclear/cytoplasmic p65 ratio, rep 1	nuclear/cytoplasmic p65 ratio, rep 2	low cell count flag	Outcome
Ndp (Norrie disease (pseudoglioma) (human))	SID315468118	0.1	1.51	1.31	enough cells to score	inactive
Nek6 (NIMA (never in mitosis gene a)-related expressed kinase 6)	SID315471996	0.68	1.82	1.44	enough cells to score	inactive

Additional entries:
no.	gene symbol	PubChem SID	p65 translocation robust z-score	nuclear/cytoplasmic p65 ratio, rep 1	nuclear/cytoplasmic p65 ratio, rep 2	low cell count flag	Outcome
50	Nde1 (nudE neurodevelopment protein 1)	SID315472897	-1.67	1.12	1.14	enough cells to score	active
51	Hao2 (hydroxyacid oxidase 2)	SID315471384	1.15	1.94	1.59	enough cells to score	inactive
52	Uri1 (URI1, prefoldin-like chaperone)	SID315468984	1.23	1.8	1.96	enough cells to score	inactive
53	Pemt (phosphatidylethanolamine N-methyltransferase)	SID315468464	-1.45	1.27	1.08	enough cells to score	inactive
54	Ezh2 (enhancer of zeste 2 polycomb repressive complex 2 subunit)	SID315466596	-0.25	1.48	1.29	enough cells to score	inactive
55	Sema4d	SID315469179	1.74	1.75	1.86	enough cells to score	inactive
56	Serpinb7 (serine (or cysteine) peptidase inhibitor, clade B, member 7)	SID315477068	0.02	1.35	1.31	enough cells to score	inactive
57	Spop (speckle-type BTB/POZ protein)	SID315469435	-0.15	1.4	1.22	enough cells to score	inactive
58	Fam20b (FAM20B, glycosaminoglycan xylosylkinase)	SID315477902	0.54	1.51	1.6	enough cells to score	inactive
59	Cfap184 (cilia and flagella associated protein 184)	SID315472604	1.03	1.37	1.42	enough cells to score	inactive
60	Pzp2 (PZP alpha-2-macroglobulin like 2)	SID315465226	0.25	1.44	1.22	enough cells to score	inactive
61	Gak (cyclin G associated kinase)	SID315478903	-0.13	1.7	1.35	enough cells to score	inactive
62	Ric8b (RIC8 guanine nucleotide exchange factor B)	SID315479347	-0.66	1.58	1.48	enough cells to score	inactive
63	Arhgef11 (Rho guanine nucleotide exchange factor 11)	SID315477810	-0.59	1.53	1.53	enough cells to score	inactive
64	Nabp1 (nucleic acid binding protein 1)	SID315476773		1.27	1.19	fewer than 50 cells per well; well left out of scoring	inactive
65	Pgm1 (phosphoglucomutase 1)	SID315474478	-0.08	1.4	1.26	enough cells to score	inactive
66	Mtmr9 (myotubularin related protein 9)	SID315477639	3.41	1.95	1.72	enough cells to score	active
67	Cdkn2b (cyclin dependent kinase inhibitor 2B)	SID315465917	0.32	1.81	1.37	enough cells to score	inactive
68	Snai3 (snail family zinc finger 3)	SID315470763		1.31	1.08	fewer than 50 cells per well; well left out of scoring	inactive
69	Rnf122 (ring finger protein 122)	SID315473656	0.69	1.52	1.48	enough cells to score	inactive
70	Synb (syncytin b)	SID315479427	-0.25	1.54	1.5	enough cells to score	inactive
71	Styk1 (serine/threonine/tyrosine kinase 1)	SID315479697	1.25	1.93	1.51	enough cells to score	inactive
72	2900005J15Rik (RIKEN cDNA 2900005J15 gene)	SID315472931		1.55	1.53	fewer than 50 cells per well; well left out of scoring	inactive
73	Or52r1 (olfactory receptor family 52 subfamily R member 1)	SID315480688		0	1.28	fewer than 50 cells per well; well left out of scoring	inactive
74	Ccdc158 (coiled-coil domain containing 158)	SID315481370	-0.67	1.21	1.2	enough cells to score	inactive
75	Dolk (dolichol kinase)	SID315478587	0.25	1.4	1.17	enough cells to score	inactive
